No constants are given. Whether binding was seen depends on the method and setting. Binding seen in cells or lysates may run through a third protein. These calls come from enrichment with a bait or labelling near it, and not all partners need be listed.
Target: Methionine adenosyltransferase α1 (MATα1), endogenous human (human (endogenous in human hepatocytes and liver)) (UniProt Q00266)
Assay: affinity purification with mass spectrometry; normal human liver lysates (1000 μg), IP with anti-MATα1 antibody, on-bead trypsin/Lys-C digestion, DIA-MS

Chains of the proteins cited; added tags and fusions are not shown. Residues count along the entry.
UniProt Q00266: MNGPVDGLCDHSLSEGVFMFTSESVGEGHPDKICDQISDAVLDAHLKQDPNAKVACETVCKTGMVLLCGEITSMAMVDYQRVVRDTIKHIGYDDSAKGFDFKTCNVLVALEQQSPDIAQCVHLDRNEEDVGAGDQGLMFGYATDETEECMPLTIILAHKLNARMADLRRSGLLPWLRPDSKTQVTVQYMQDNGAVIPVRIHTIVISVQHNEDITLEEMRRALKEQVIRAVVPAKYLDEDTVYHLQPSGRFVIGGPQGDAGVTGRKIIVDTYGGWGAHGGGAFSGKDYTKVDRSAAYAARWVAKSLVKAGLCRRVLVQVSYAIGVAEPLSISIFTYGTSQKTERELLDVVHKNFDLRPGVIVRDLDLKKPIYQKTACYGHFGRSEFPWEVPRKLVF
UniProt P31040, residues 43-664: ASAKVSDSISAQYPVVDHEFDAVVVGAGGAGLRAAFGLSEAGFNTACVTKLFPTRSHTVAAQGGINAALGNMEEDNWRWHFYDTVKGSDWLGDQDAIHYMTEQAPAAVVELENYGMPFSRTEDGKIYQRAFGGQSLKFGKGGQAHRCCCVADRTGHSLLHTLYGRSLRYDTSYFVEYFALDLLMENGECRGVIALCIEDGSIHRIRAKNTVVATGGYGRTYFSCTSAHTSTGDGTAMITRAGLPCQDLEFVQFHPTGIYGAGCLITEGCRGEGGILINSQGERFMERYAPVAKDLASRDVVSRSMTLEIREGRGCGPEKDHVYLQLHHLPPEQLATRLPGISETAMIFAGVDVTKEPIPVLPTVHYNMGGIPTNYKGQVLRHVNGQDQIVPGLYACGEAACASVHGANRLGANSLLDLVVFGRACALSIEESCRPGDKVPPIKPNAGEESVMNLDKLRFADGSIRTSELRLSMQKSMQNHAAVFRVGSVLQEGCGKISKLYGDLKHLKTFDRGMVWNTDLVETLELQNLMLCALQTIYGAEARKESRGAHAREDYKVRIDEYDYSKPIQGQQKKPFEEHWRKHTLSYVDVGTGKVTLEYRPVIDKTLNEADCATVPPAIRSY

binding: binds
Substance: SDHα, endogenous human (from UniProt P31040 43-664)
